Assay results published in doi:10.1101/2023.07.20.549862.
These are yes or no findings as the source states them, for the method shown. In cells and extracts the contact can be indirect. Binding calls can cover weak binding; strength is not graded here.

Molecular target: Xenopus laevis PP1c (XePP1c) (Xenopus laevis (endogenous in oocytes)) (UniProt P36874)
Experiment: co-IP

In the case of “HA-tagged PbRpt3 protein (translated from cRNA in Xenopus oocytes) (from UniProt A0A509AIQ8)”, the binding is reported as “binds”.
